Experimental data from publication PMC4145799.
These are yes or no findings as the source states them, for the method shown. Some entries that bind do so weakly or less than the wild type.

Protein sequences, listed by entry. Tags and fused reporters are not part of them.
UniProt P0A9H3: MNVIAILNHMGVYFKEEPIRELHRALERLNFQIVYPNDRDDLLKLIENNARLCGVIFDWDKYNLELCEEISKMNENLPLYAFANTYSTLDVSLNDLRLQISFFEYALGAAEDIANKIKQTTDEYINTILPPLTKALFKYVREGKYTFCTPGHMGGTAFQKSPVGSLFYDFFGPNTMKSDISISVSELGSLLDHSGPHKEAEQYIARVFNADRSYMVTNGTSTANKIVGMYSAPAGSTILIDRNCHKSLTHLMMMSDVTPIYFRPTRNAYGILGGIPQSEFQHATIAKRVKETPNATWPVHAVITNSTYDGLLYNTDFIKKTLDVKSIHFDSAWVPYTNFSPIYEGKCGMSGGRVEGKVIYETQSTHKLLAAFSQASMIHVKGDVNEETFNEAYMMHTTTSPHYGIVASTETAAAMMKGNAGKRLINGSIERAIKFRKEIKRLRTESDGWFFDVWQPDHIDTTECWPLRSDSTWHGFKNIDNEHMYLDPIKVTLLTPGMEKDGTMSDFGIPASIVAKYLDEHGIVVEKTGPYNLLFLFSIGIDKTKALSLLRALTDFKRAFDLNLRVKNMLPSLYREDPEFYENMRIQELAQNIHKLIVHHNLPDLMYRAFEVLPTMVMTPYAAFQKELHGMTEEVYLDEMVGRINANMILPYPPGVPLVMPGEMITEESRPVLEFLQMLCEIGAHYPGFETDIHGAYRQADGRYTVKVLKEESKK
UniProt P31473: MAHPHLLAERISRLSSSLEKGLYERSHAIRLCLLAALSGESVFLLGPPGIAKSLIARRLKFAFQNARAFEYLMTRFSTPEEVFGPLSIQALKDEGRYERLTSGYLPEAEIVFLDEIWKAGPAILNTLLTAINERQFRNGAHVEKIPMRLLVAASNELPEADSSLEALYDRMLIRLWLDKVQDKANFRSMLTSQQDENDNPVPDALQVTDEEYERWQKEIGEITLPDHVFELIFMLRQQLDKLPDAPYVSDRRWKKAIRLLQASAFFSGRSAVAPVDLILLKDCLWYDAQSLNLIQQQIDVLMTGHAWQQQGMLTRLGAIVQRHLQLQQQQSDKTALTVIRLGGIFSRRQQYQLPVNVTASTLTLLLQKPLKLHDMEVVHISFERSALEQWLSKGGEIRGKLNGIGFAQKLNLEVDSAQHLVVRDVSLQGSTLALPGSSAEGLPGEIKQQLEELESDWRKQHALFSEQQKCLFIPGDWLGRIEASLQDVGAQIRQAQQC

Molecular target: inducible lysine decarboxylase LdcI (Escherichia coli) (UniProt P0A9H3)
Test: cryo-EM structure; LdcI–RavA complex, 11 Å; 1.26 mg/ml LdcI mixed with 0.94 mg/ml RavA, 15 min at room temperature, 25 mM Mes pH 6.5, 200 mM NaCl, 3 mM ADP, 0.8 mM PLP, 1 mM DTT; no cross-linking; D5 symmetry imposed; both purified

binding: binds
Substance: AAA+ ATPase RavA (from UniProt P31473 1-498) (enzyme)
